Literature values in PMC8623179, “Design and Microwave Synthesis of New (5Z) 5-Arylidene-2-thioxo-1,3-thiazolinidin-4-one and (5Z) 2-Amino-5-arylidene-1,3-thiazol-4(5H)-one as New Inhibitors of Protein Kinase DYRK1A” (Pharmaceuticals, 2021).
Read-outs that look alike come from different tables or passages of the source.

Tested on: GSK-3α/β
Details: read-out: IC50 GSK3α/β, positive control, cited from earlier work

Structure (SMILES): CC[C@H](CO)Nc1nc(NCc2ccccc2)c2ncn(C(C)C)c2n1 [(R)-Roscovitine]
- IC50 (Table 4): 130 µM
- IC50 (Table 5, same values as Table 4): 130 µM
